Data: PubChem BioAssay AID652054 (National Center for Advancing Translational Sciences (NCATS), 2013)
Where “and” joins values, the source holds several entries; their conditions need not be identical. Identical values can stand only once. In all, about 360,000 compounds went through this assay and about 9,100 (2.5%) were called active. The inconclusive results got no clear call from the source; some entries with a clear call stand among them for comparison. Rule as the data show it: active = max response below about -50%; inconclusive = no clear call, values can overlap the other calls; inactive = above that.

Sequences of proteins named here, by UniProt entry; tags and fusion partners are left off.
UniProt P35462, whole entry, looked up: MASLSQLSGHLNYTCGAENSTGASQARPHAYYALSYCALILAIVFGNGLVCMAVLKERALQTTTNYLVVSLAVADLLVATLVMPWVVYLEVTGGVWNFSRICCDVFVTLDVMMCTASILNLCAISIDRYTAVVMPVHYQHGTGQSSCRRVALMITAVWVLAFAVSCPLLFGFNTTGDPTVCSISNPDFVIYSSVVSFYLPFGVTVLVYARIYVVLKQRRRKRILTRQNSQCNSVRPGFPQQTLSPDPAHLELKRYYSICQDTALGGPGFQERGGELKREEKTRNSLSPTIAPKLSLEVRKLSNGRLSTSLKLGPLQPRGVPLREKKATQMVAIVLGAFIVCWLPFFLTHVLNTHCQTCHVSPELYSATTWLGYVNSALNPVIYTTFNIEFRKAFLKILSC

Target: D(3) dopamine receptor (Homo sapiens) (UniProt P35462)
Assay: qHTS of D3 Dopamine Receptor Antagonist: qHTS
Settings: D3R cells, DiscoveRx beta-arrestin luminescence, antagonist mode; active compounds read low
In short: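 Cells expressing the human receptor were seeded at 1500 cells/well, incubated overnight at 37 degrees C in 5% CO2, then exposed to library compounds with dopamine controls for 90 minutes at 37 degrees C before luminescent detection.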
% is scaled to controls: 0 for no effect and ±100 for the full control effect.

Max response, negative = inhibition, inactive:
COc1ccc(CNC(=O)Nc2cccc(Cl)c2)cc1 0.283%
COc1cc(NC(=O)Nc2cccc(Cl)c2)c(OC)cc1NC(=O)CN1CCCCC1 -7.44%
N#CC(C#N)=c1ccc2c(c1)N1C3=C(CCCC3)CC3CCCCC31N=2 (stereo unspecified) 18%
CCCC(=O)NC(=S)Nc1ccc(N2CCN(C(=O)c3cccs3)CC2)cc1 4.04%
Cc1ncc(C(O)c2ccc(N(C)C)cc2)n1Cc1ccccc1 (stereo unspecified) -5.73%
S=C(c1cn(CCOc2ccccc2)c2ccccc12)N1CCCC1 3.51%
Cc1ccc2cc(C3CC(c4ccco4)=NN3S(=O)(=O)c3ccccc3)c(Cl)nc2c1 (stereo unspecified) -0.869%
Cc1ccc(S(=O)(=O)N2C[C@H]3C(=O)C[C@@H](c4ccc(Cl)cc4)N(S(=O)(=O)c4ccc(C)cc4)[C@H]3C[C@H]2c2cccc3ccccc23)cc1 -2.67%
O=C(Nc1ccc(Cl)cn1)c1cccc(S(=O)(=O)N2CCCCCC2)c1 0.255%
COc1ccc(CCNc2ccc(C(CC(N)=O)NC(=O)Cc3ccc(Br)cc3)cc2[N+](=O)[O-])cc1 (stereo unspecified) 0%
O=c1oc(-c2ccccc2Cl)nc2ccsc12 -15.9%
CCC(C(=O)Nc1ccccc1-c1ccccc1)c1ccccc1 (stereo unspecified) -21.1%
CC1CC(C)CN(C(=O)C2CCC(CNS(=O)(=O)c3ccccc3)CC2)C1 (stereo unspecified) 9.65%
COc1ccccc1CNC(=O)CSc1ccc(C(=O)Nc2ccccc2OC)cc1[N+](=O)[O-] 8.72%
CCOc1ccccc1N1CCN(C(=O)c2ccccc2SCC(=O)N2CCCC2)CC1 14.3%
COc1ccc(C(=O)NC2CCN(C(=S)NCc3ccco3)CC2)cc1 2.51%
O=C(NCc1cccnc1)c1cc(C2CCCCN2C(=O)c2ccc3ccccc3c2)on1 (stereo unspecified) -5.33%
CS(=O)(=O)N(CC(=O)NCCSC1CCCCC1)c1ccc2c(c1)OCO2 -11.4%
COc1cc(/C=C2/C(=N)N3N=C(C(C)C)SC3=NC2=O)ccc1OS(=O)(=O)c1ccccc1 0.485%
c1ccc(C2Oc3ccccc3C3CC(c4cccs4)=NN32)cc1 (stereo unspecified) 0.629%
O=C(NCCc1cccs1)C1CC(c2cccc(F)c2)=NO1 (stereo unspecified) 1.59%

Max response, negative = inhibition, inconclusive:
Cc1cccc(NC(=S)NC2CC3CCCC(C2)N3CC(C)C)c1 (stereo unspecified) -43.2%
COc1ccc(Cl)c(NC(=O)Nc2c(C)n(-c3ccccc3)c(=O)n2C)c1 -34.2%
CCCCCN1C2=NCCN2c2ccccc21 -38.3%
O=C(CSc1nc2ccccc2c(=O)n1-c1ccc(F)c(Cl)c1)Nc1cccc(S(=O)(=O)N2CCOCC2)c1 -34.3%
COc1ccc(-c2ccc(C(=O)Nc3ccc(Cl)cc3)c3occc23)c(C)c1 -40.8%
COc1ccc(NC(=O)Nc2ccc([N+](=O)[O-])cc2)cn1 -33.9%
CCOC(=O)c1c(-c2ccccc2)oc2ccc(O)c(CN(C)C)c12 -45.9%
CCN1C/C(=C/c2ccc(OC)c(O)c2)C(=O)/C(=C/c2ccc(OC)c(O)c2)C1 -30.3%
CCN1CCN(Cc2ccc(NC(=O)c3ccc(C)c(NC(=O)C(=O)c4c[nH]c5ccccc45)c3)cc2C(F)(F)F)CC1 -33.1% and -44.7%
Cc1cc2c(cc1S(=O)(=O)CCC(=O)N(C)C1CCCCC1)OCC(=O)N2 -34.6%
CCOc1cc(/C=C/c2ccc3cccc([N+](=O)[O-])c3n2)ccc1O -39.2%
CCCCN(CC)CCNC(=O)c1cc2c(C)nc3ccccc3c2o1 -32.6%
CC(C)(C)c1cc(C(=O)NCCN2CCCC2)cc(C(C)(C)C)c1 -41.5%
Cc1ccc(CSC(Nc2ccc(F)cc2)=C(C#N)C#N)cc1 -32.6%
C/C(Cn1nnc([N+](=O)[O-])n1)=N\NC(=O)c1ccccc1 -31.5%
O=C(NC1CCN(Cc2ccccc2)CC1)C1CCCN(c2nnc(-n3cccc3)s2)C1 (stereo unspecified) -39.5%
Cc1c(C)c(C)c(C(=O)c2ccc(NC(=O)c3ccccc3C(=O)O)cc2)c(C)c1C -42%
CCOc1ccc(N(CC(=O)NN=C2CCN(C)CC2)S(=O)(=O)c2ccc(Br)cc2)cc1 -33.4%
Cc1cc(-c2ccc(C(C)C)c(S(=O)(=O)N3CCOc4ccccc43)c2)on1 -35.7%
Cc1c(NC(=O)Cn2nc(C(=O)O)c3ccccc3c2=O)c(=O)n(-c2ccccc2)n1C -49.7%
CCN(c1ccccc1)S(=O)(=O)c1ccc(Cl)c(NC(=O)CSc2nc(N)cc(=O)[nH]2)c1 -33.4%
O=C(NC(NC(=S)Nc1cc(Cl)ccc1Cl)C(Cl)(Cl)Cl)c1ccco1 (stereo unspecified) -38.9%
O=C(N/N=C/c1ccccc1O)/C(=C/c1ccccc1)CCO -43.7%
COC(=O)C1=C(C)NC2=C(C(=O)CC(c3cccs3)C2)C1c1ccsc1 (stereo unspecified) -45.3%
O=C(CN1C(=O)c2cccc3cccc1c23)Nc1ccc(S(=O)(=O)N2CCOCC2)cc1 -47%
O=C(CS(=O)(=O)c1cn(Cc2ccc(F)cc2)c2ccccc12)N1CCCCC1 -31%
CCCn1c(SCC(=O)NCCc2ccccc2)nnc1-c1ccco1 -32.5%
Cc1ccc(S(=O)(=O)N=Nc2c(O)[nH]c3ccccc23)cc1C -39.2%
O=C(NCC(c1ccco1)N1CCCC1)c1cc2cc(Cl)ccc2o1 (stereo unspecified) -38.6%
COc1cc(OC)c2c(-c3ccccc3)cc(=O)oc2c1C(CCN1CCCCC1)c1ccc2c(c1)OCO2 (stereo unspecified) -44.1%
CCCCCCCCCCOC(=O)Cn1c(COc2ccc(OC)cc2)[n+](C)c2ccccc21 -33.8%
CCOC(=O)Nc1nc(-c2ccccc2)c(C(=O)c2ccccc2)s1 -39.7%
CC(=O)Nc1ccc2c(c1)nc(CCN1CCC(C)CC1)n2C -31.3%
COc1ccccc1NC(=O)COC(=O)c1[nH]c(=O)[nH]c(=O)c1N -37.6%
CCN1CCN(C(=O)CN(CC)S(=O)(=O)c2ccc(Cl)cc2)CC1 -31.9%
COc1cccc(NC(=O)c2ccc(-n3cccn3)nc2)c1 -43.1%
CCn1ccnc1CN(C)C(=O)c1ccc(OC2CCN(CCc3ccccc3)CC2)cc1 -32.5%
COc1ccccc1/C=C/C=N/n1c(-c2cc(C)[nH]n2)n[nH]c1=S -34.5%
Cc1ccc(C)c(/C=N/n2cc(-c3ccccc3)[nH]c2=S)c1 -35.6%
Nc1c(NCCC2=CCCCC2)c(=O)[nH]c(=O)n1Cc1ccccc1 -42.1%
O=C(NCCO)c1cccc(-c2cccc3nncn23)c1 -42.2%
COc1cccc(Cn2cnc(-c3ccccc3OC)c2-c2cccs2)c1 -43.7%
CCCCNC(=S)Nc1ccc(SC(F)F)cc1 -33.7%
CN1C(=O)C(O)(CC(=O)c2ccc(F)cc2)c2cc(Br)ccc21 (stereo unspecified) -45.8%
Cc1ccc(NC(=O)N2CCN(Cc3ccc4c(c3)OCO4)CC2)cc1 -32.3%
CCCC(=O)N1CCC1(C)C(=O)Nc1ccccn1 (stereo unspecified) -42.2%
COc1cc(/C=N/n2c(C)n[nH]c2=S)ccc1OCc1ccc(F)cc1 -39.1%
COc1ccc(CCNC(=O)N2c3ccccc3Sc3ccccc32)cc1 -46.7%
Cc1cc(Br)ccc1OCCN1CC(C)OC(C)C1 (stereo unspecified) -30.4%
COC(=O)N1C(=O)[C@](c2ccsc2)(C(C)C)N1C(=O)OC -35.9%

Max response, negative = inhibition, active:
N#Cc1ccc(N)cc1OCCCN1CCCCC1 -51.6%
CCOc1cccc(OCCCNCCCOC)c1 -58.7%
O=c1[nH]cnc2c([N+](=O)[O-])cccc12 -79.8%
COc1ccc([N+](=O)[O-])cc1C(=O)NC1CCN(Cc2ccccc2)CC1 -99.6%
COc1ccc(C(CNC(=O)c2ccc(OC)c(S(=O)(=O)N3CCCC3)c2)N2CCCC2)cc1 (stereo unspecified) -82.6%
COC(=O)c1nc(NC(=O)c2ccccc2Cl)n[nH]1 -60.5%
CCCOc1ccc(CSc2nc3ccccc3[nH]2)cc1 -65.3%
CCc1n[nH]c(=S)n1/N=C/c1cc(OC)cc([N+](=O)[O-])c1O -94.2%
CCOc1ccccc1NC(=O)Nc1cc(OC)ccc1OC -69.8%
CCCCNCCCOc1ccc(C)cc1Br -66.7%
Clc1ccc(OCCCCCN2CCCC2)c(Br)c1 -51.9%
S=C(Nc1ccc(Nc2ccccc2)cc1)Nc1ccccn1 -67%
C(=C\c1ccccc1)/CN1CCN(C(c2cccs2)c2nnnn2-c2ccc3c(c2)OCCO3)CC1 (stereo unspecified) -79.4%
CSc1ccc(CN2CCC2(C)C(=O)NC2CCN(Cc3ccccc3)CC2)cc1 (stereo unspecified) -111%
CN(C)CC/C=C1\c2cc(F)ccc2CSc2ccccc21 -51.7%
